# According to US20250304622A1, “SHORT APOLIPOPROTEIN E MIMETIC PEPTIDES AND METHODS OF USE” (The United States of America, as represented by the …, priority 2022, published 2025):
# Some entries share one result that the patent states for a list of compounds.
# Test system: ApoE-ko mice
# Test: Single dose study in ApoE-ko mice, plasma total cholesterol and triglycerides
# Format: in vivo
# Conditions: for lowering of plasma triglycerides: ApoE-KO mice, 2.5 μmol/kg i.v. single dose, at 1 h, FIG. 20B; for duration of plasma total cholesterol decrease after administration: ApoE-ko mice, 4.6 mg/kg (2.5 μmol/kg) intravenous, FIG. 10A
# Description: The effect of OctaC-E139-150 and OctaN-E139-150 peptides were tested in ApoE-ko mice. The mice were kept on a normal chow diet. At 3.5 months of age, 15 mice were divided into three groups of five mice each, as follows: 1) control group; 2) OctaC-E139-150 peptide group; and 3) OctaN-E139-150 peptide group. Peptides were dissolved in PBS at 1.5 mg/ml (810 μM OctaC-E139-150; 849 μM OctaN-E139-150). Mice were weighed one day before peptide administration and peptide amount was calculated for each mouse to receive 4.6 mg/kg peptide (2.5 μmol/kg). The calculated amount of 1.5 mg/ml peptide was placed in a syringe and normalized with PBS to 80 μl. The mice received intravenous injection of PBS (control) or the peptide. Blood samples were collected immediately prior to injection, and 1 hour, 3 hours, and 6 hours after injection. Blood was centrifuged at 3000 rpm at 4° C. for 20 minutes and plasma was separated (20-30 μl) and stored at 4° C. Plasma triglycerides and total cholesterol were measured the next day using L-type triglyceride M assay and The cholesterol E kit (Wako, FUJIFILM Medical Systems USA).
# MyrN-E139-150 and OctaN-E139-150 peptides were tested in a single dose ApoE-KO mouse study. ApoE-KO mice (n=9) were divided into 3 groups: control group (PBS), n=3; MyrN-E139-150 (2.5 μmol/kg; 4.6 mg/kg), n=3; and OctaN-E139-150 (2.5 μmol/kg; 4.4 mg/kg), n=3. Mice were fed normal chow diet for the whole study. Peptides were injected i.v. and blood samples were collected at pre-injection and 1 h, 3 h, and 6 h after the injection of the peptides. Measurement of plasma total cholesterol and triglycerides was as described in Example 2. The peptides lowered plasma total cholesterol (FIG. 20A; 37% at 3 h; 29% at 6 h) and triglycerides (FIG. 20B; 30-50% at 1 h).
Substance,lowering of plasma triglycerides,duration of plasma total cholesterol decrease after administration
Myristyl-SH(R8)RKLRKR(S5)LR-NH2 [MyrN-E139-150],30-50%,
Octanoyl-SH(R8)RKLRKR(S5)LR-NH2 [OctaN-E139-150],30-50%,at least 6 hours
Ac-SH(R8)RKLRKR(S5)LR-Octanoyl [OctaC-E139-150],,at least 6 hours
